# Screen size: about 220,000 compounds; about 770 (0.35%) were called active. This list was built around the results that the source calls inconclusive (neither active nor inactive); the mix of calls is not that of the screen. No stated cut-off is given here; in the data, active means binding response below about 49% or above about 150%; inconclusive means no clear call, values can overlap the other calls; inactive means in between.
# Chains of the proteins cited; added tags and fusions are not shown.
# UniProt P09471, whole entry, looked up: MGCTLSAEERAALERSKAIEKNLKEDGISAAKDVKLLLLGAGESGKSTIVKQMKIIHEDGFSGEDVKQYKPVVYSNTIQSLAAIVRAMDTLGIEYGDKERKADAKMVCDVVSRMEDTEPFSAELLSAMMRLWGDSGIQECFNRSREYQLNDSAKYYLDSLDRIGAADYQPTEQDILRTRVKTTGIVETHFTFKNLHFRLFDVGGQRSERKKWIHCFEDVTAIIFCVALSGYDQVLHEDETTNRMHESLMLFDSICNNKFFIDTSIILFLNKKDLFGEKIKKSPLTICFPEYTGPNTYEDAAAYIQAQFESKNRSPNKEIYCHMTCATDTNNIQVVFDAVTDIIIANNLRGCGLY
# Target: Guanine nucleotide-binding protein G(o) subunit alpha (Homo sapiens) (UniProt P09471)
# Test: compounds changing RGS7 association with Galphao – biochemical, multiplexed bead flow cytometry, primary screen (AID 1439);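 further: fluorescent Galphao held in activated GDP-AlF4 state binding bead-coupled RGS7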
# Conditions: at 10 µM, actives lie on both sides
row,SMILES,binding response (% of control)
1,CC(C)n1cc(C(=O)N(CC(=O)NC2CCCC2)Cc2ccccc2)cn1,inactive: 127%
2,C=CCn1c(O)c(C(C)=NC(C)c2ccccc2)c(=O)[nH]c1=O (stereo not drawn),inconclusive: 51.7%
3,CCOc1ccccc1-n1c(O)c(C=NCCCn2ccnc2)c(=O)[nH]c1=O,inconclusive: 90.6%
4,CCc1ccccc1NC(=O)CNCc1ccccc1,inactive: 101%
5,CCOP(=O)(Cc1cc(C#N)oc1C)OCC,inactive: 103%
6,C=CCn1c(O)c(/C=N/NC(=O)c2ccncc2)c(=O)[nH]c1=O,inconclusive: 94.3%
7,COc1cc2c(cc1OC)C13CCN4CC5=CCOC6CC(=O)N2C1C6C5CC43 (stereo not drawn) (tested in a mixture with another compound),inconclusive: 122%
8,Cn1c(O)c(C=NCCN2CCOCC2)c(=O)n(C)c1=S,inconclusive: 94.6%
9,OC12Oc3ccccc3C=C1N1CCC2CC1 (stereo not drawn),inactive: 98.9%
10,COCCNC(=O)c1ccc(N2CC3CC(C2)c2cccc(=O)n2C3)c([N+](=O)[O-])c1 (stereo not drawn),inactive: 100%
11,O=C1NC(=O)N(c2ccc3c(c2)OCO3)C(=O)/C1=C\c1ccsc1,inconclusive: 67%
12,C=C(C)CSc1nnc([C@@H](N)Cc2ccccc2)o1,inconclusive: 74.8%
13,CCN1CCN(C(=O)COc2ccc3c(c2)C(=O)CC2(CCN(C(C)=O)CC2)O3)CC1,inactive: 94.4%
14,CCC1(CCc2ccncc2)C(=O)NC(=O)NC1=O,inactive: 100%
15,Cc1ccc(N2C(=O)NC(=O)/C(=C\C=C\c3ccco3)C2=O)cc1,inconclusive: 100%
16,O=C(Nc1ccc(F)cc1)OC1CN2CCC1CC2 (stereo not drawn),inconclusive: 99.9%
17,O=C1OCc2cc(N=Nc3c(O)[nH]c(=O)[nH]c3=O)ccc21,inconclusive: 101%
18,CCC1C2Cn3c(nc4ccccc43)C1N(C)O2 (stereo not drawn),inconclusive: 97.8%
19,C=CCn1c(O)c(C=NC2CCN(Cc3ccccc3)CC2)c(=O)[nH]c1=O,inconclusive: 103%
20,Cc1ccc(-c2nn(Cc3ccccc3)cc2C=O)cc1C,inactive: 104%
21,CCOP(=O)(OCC)C(NC(C)=O)C(Cl)(Cl)Cl (stereo not drawn),inactive: 99%
22,O=C1CN=C(c2ccc[nH]2)c2cc(Cl)ccc2N1,inconclusive: 73.4%
23,CC(=NCc1ccco1)c1c(O)n(-c2ccc(Cl)cc2)c(=O)[nH]c1=O,inconclusive: 54.7%
24,O=c1[nH]c(O)c(N=Nc2ccc([N+](=O)[O-])cc2)c(=O)[nH]1,inactive: 99.9%

# By substructure, the compounds so far containing sulfur (3)
row,SMILES,binding response (% of control)
8,Cn1c(O)c(C=NCCN2CCOCC2)c(=O)n(C)c1=S,inconclusive: 94.6%
11,O=C1NC(=O)N(c2ccc3c(c2)OCO3)C(=O)/C1=C\c1ccsc1,inconclusive: 67%
12,C=C(C)CSc1nnc([C@@H](N)Cc2ccccc2)o1,inconclusive: 74.8%

# Next compounds.

row,SMILES,binding response (% of control)
1,O=c1[nH]c(=S)[nH]c(O)c1N=Nc1cccc(S(=O)(=O)N2CCOCC2)c1,inconclusive: 127%
2,C=CCN1CC[C@]23c4c5ccc(O)c4O[C@H]2C(=O)CC[C@@]3(O)[C@H]1C5,active: 34.1%
3,CC(N=Cc1c(O)n(C2CC2)c(=S)[nH]c1=O)c1ccccc1 (stereo not drawn),inconclusive: 107%
4,CN1C(=O)NC(=O)/C(=C\c2ccc([N+](=O)[O-])o2)C1=O,inconclusive: 70%
5,CC1=C(C(=O)O)N2C(=O)C(NC(=O)Cc3ccccc3)C2SC1 (stereo not drawn),inconclusive: 94.7%
6,CC(=NCc1ccco1)c1c(O)n(-c2ccc(C)cc2)c(=O)[nH]c1=O,inconclusive: 61.1%
7,Cn1c(O)c(C(=Nc2ccc(F)cc2)c2ccccc2Cl)c(=O)n(C)c1=O,inconclusive: 564%
8,CCOc1ccc2nc(N=Nc3c(O)[nH]c(=O)[nH]c3=O)sc2c1,inconclusive: 116%
9,CCOC(=O)c1c(C)n(Cc2ccc3c(c2)OCO3)c2ccc(O)cc12,inactive: 92%
10,Cc1cccc(N2C(=O)NC(=O)/C(=C\c3ccc(N4CCOCC4)cc3)C2=O)c1,inconclusive: -127%
11,CCOP(=S)(OCC)Oc1cc(C)oc(=O)c1,inconclusive: -5.12%
12,O=c1c2ccccc2nc(CNc2ccccc2)n1-c1ccccc1,inconclusive: 82.4%
13,Cn1cccc1/C=C1\C(=O)NC(=O)N(Cc2ccccc2)C1=O,inconclusive: 77.9%
14,COC1=CCC2([N+](=O)[O-])CN(C)CC1([N+](=O)[O-])C2 (stereo not drawn),inactive: 103%
15,O=C(Nc1ccc(Cl)cc1)OC1CN2CCC1CC2 (stereo not drawn),inconclusive: 56%
16,CCC(=O)OC1(Cc2ccc(CC)cc2)CC(C)N(C)CC1C (stereo not drawn),inconclusive: 92.6%
17,CCOC(=O)c1cc(C)n(CCc2cnc[nH]2)c1C,inactive: 103%
18,COP(=O)(OC)Oc1ccc(C(O)C(Cl)(Cl)Cl)cc1 (stereo not drawn),inconclusive: 116%
19,Cc1ccc(-n2c(O)c(/C=N/N3CCCCCC3)c(=O)[nH]c2=O)cc1C,inconclusive: 184%
20,C=CCSc1nc2c(c(-c3ccsc3)c1C#N)CN(C)CC2,inconclusive: 137%
21,CCn1c(O)c(/C=N/NC(=O)c2ccccc2)c(=O)[nH]c1=S,inconclusive: 75.5%
22,N=Cc1c(O)n(-c2ccc(C34CC5CC(CC(C5)C3)C4)cc2)c(=O)[nH]c1=O,inactive: 75.9%
23,Cn1c(O)c(/C=N/N2CCOCC2)c(=O)n(C)c1=S,inconclusive: 69.8%
24,NNP(=O)(CC(=O)c1ccccc1)c1ccccc1 (stereo not drawn),inconclusive: 100%

row,SMILES,binding response (% of control)
1,O=C(Nc1ccc(Br)cc1)c1nn(C23CC4CC(CC(C4)C2)C3)cc1Br,inactive: 101%
2,O=C1NC(=O)N(c2ccc3c(c2)OCO3)C(=O)/C1=C\c1ccc(-c2ccccc2C(=O)O)o1,inconclusive: 117%
3,CC(C)(C)NC(=O)NC(=O)CN1CC=C(c2ccccc2)CC1,inconclusive: 121%
4,Cc1cc(NC(=O)C(Cl)(Cl)Cl)no1,inconclusive: 128%
5,CCCCCCC(=O)N/N=C/c1c(O)n(CCc2ccccc2)c(=O)[nH]c1=O,inconclusive: 80.3%
6,N#CC(C#N)=NNc1ccc(S(N)(=O)=O)cc1,inconclusive: 91.9%
7,CC(=O)c1c(C)n(Cc2ccccc2)c2ccc(O)cc12,inconclusive: 90.7%
8,CC(C)(C)C(=O)NC1CCSC1=O (stereo not drawn),inconclusive: 102%
9,O=c1[nH]c(O)c(/C=C2\C=NN=C2c2ccccc2)c(=O)[nH]1,inactive: 87.2%
10,Cc1nn(Cc2ccccc2)c(Cl)c1C(=O)O,inconclusive: 97.5%
11,Cc1ccc(-n2c(O)c(C=Nc3ccc(S(N)(=O)=O)cc3)c(=O)[nH]c2=O)cc1,inconclusive: 122%
12,N#Cc1ccc(/C=C/C(=O)O)cc1,inconclusive: 34.5%
13,O=P(Nc1ccccc1)(Nc1ccccc1)Oc1ccccc1,inactive: 81.2%
14,CC(=O)NCC(=O)Nc1ccc(Br)cc1C(=O)c1ccccc1,inconclusive: 94.7%
15,Cc1cccc(OP(N)(=O)Oc2cccc(C)c2C)c1C,inconclusive: 100%
16,NC1=NC(=O)C(c2ccccc2)O1 (stereo not drawn),inactive: 104%
17,CC(=O)OC1(c2ccccc2)CCN(C2CCCCC2)CC1C (stereo not drawn),inactive: 107%
18,CCC[N+]12CCC(CC1)C(C(O)(c1ccccc1)c1ccccc1)C2 (stereo not drawn),inconclusive: 47.4%
19,CCC(C)n1c(O)c(C=NCCN2CCOCC2)c(=O)[nH]c1=S (stereo not drawn),inconclusive: 162%
20,c1ccc(-c2nnc(C3CC(c4cccnc4)=NO3)o2)cc1 (stereo not drawn),inconclusive: 104%
21,COc1ccc(-c2nn(CCC#N)cc2C(=O)NCc2ccccc2)cc1,inconclusive: 120%
22,O=C(c1ccccc1)C1NC1c1ccccc1 (stereo not drawn),inconclusive: 73.1%
23,COC(=O)c1cccc(N=Cc2c(O)n(Cc3ccc(F)cc3)c(=O)[nH]c2=O)c1,inconclusive: 87%
24,Cn1c(O)c(C(=Nc2ccccc2)SCc2ccccc2Cl)c(=O)n(C)c1=O,inconclusive: 149%

row,SMILES,binding response (% of control)
1,CCOP(=O)(Cc1cc(C(C)=O)c(C)o1)OCC,inconclusive: 57.3%
2,O=c1cccc2n1C[C@H]1C[C@@H]2CN2CCCC[C@@H]12,inconclusive: 134%
3,O=C(c1ccccc1)C1CCCN(Cc2nc(-c3cnccn3)no2)C1 (stereo not drawn),inconclusive: 95.8%
4,CCOP(=O)(OCC)C(O)c1ccc2c(c1)OCO2 (stereo not drawn),inconclusive: 39.7%
5,NCCc1c[nH]c2ccc(OCc3ccccc3)cc12,inconclusive: 106%
6,CCNCCNc1ccc([N+](=O)[O-])c2cccnc12,inconclusive: 91.5%
7,CC(Oc1ccc(-c2ccccc2)cc1)C(=O)O (stereo not drawn),inactive: 98.5%
8,CN1C(=O)NC(=O)/C(=C/c2ccc(C(=O)O)cc2)C1=O,inconclusive: 69.6%
9,C/C(=N\N1CCN(C)CC1)c1c(O)[nH]c(=O)[nH]c1=O,inactive: 100%
10,C/C=C1/CN2C3CC1C(CO)(C(=O)OC)C2Cc1c3n(C)c2ccccc12 (stereo not drawn),inconclusive: 139%
11,NNCc1cccc(O)c1,inconclusive: 103%
12,Cc1cc(/C=C2\C(=O)NC(=O)N(Cc3ccccc3)C2=O)c(C)n1-c1ccc(Cl)c(C(=O)O)c1,inactive: 87.5%
13,C/C(=N\N1CCCCCC1)c1c(O)n(-c2ccc(Cl)cc2)c(=O)[nH]c1=O,inconclusive: 87.4%
14,NCCCCCC(=O)OC1N=C(c2ccccc2Cl)c2cc(Br)ccc2NC1=O (stereo not drawn),inactive: 98.3%
15,CC/C(=N\NC(=S)Nc1ccccc1)c1c(O)[nH]c(=O)[nH]c1=O,inconclusive: 71.7%
16,COc1cccc(C(=O)C2CCCN(Cc3ccc4nsnc4c3)C2)c1 (stereo not drawn),active: 25.6%
17,CNc1cc(Cl)c2nonc2c1[N+](=O)[O-],inconclusive: 84.8%
18,CC1CN(c2ccc([N+](=O)[O-])cc2Cl)CCN1 (stereo not drawn),active: 7.21%
19,Cc1ccc(S(=O)(=O)N2CC2(C)CCl)cc1 (stereo not drawn),inconclusive: 143%
20,O=P1(Oc2ccccc2)CC=C[C@H](COCc2ccccc2)O1 (stereo partly drawn),inconclusive: 52.1%
21,Cc1ccccc1N1C(=O)NC(=O)/C(=C/c2ccc(N3CCOCC3)o2)C1=O,inconclusive: -34.6%
